No constants are given. Whether binding was seen depends on the method and setting. In cells and extracts the contact can be indirect. Some binding calls cover weakened binding; strength is not graded here. One block for each substance: values may come before it.
Key:
[1] = target: CSN5 (human (endogenous in THP-1)) (UniProt Q92905); assay: co-IP; THP-1 cell lysates precipitated with anti-CSN5 or anti-Cullin1 antibodies (mouse IgG as control), protein A/G-agarose, western blot; time course of CAPE treatment
[2] = target: Cullin1 (human (endogenous in THP-1)) (UniProt Q13616); assay: as above
[3] = target: CSN5, mouse (mouse (endogenous in colon tissue)) (UniProt O35864); assay: co-IP; colon tissue lysates of AOM/DSS mice precipitated with anti-CSN5 or anti-Cullin1 antibodies (mouse IgG as control), protein A/G-agarose, western blot; several doses of CAPE
[4] = target: Cullin1, mouse (mouse (endogenous in colon tissue)) (UniProt Q9WTX6); assay: as above
[5] = target: ASC (human (endogenous in THP-1)) (UniProt Q9ULZ3); assay: co-IP; total cell lysates precipitated with anti-ASC antibody (2 ug, 1 h, 4°C; mouse IgG as control), protein A/G-agarose overnight at 4°C, low-salt washes, western blot; cells treated with LPS + ATP, CAPE at several doses, with or without rotenone

Amino acid sequences for entries named in this document (tags omitted).
UniProt Q92905: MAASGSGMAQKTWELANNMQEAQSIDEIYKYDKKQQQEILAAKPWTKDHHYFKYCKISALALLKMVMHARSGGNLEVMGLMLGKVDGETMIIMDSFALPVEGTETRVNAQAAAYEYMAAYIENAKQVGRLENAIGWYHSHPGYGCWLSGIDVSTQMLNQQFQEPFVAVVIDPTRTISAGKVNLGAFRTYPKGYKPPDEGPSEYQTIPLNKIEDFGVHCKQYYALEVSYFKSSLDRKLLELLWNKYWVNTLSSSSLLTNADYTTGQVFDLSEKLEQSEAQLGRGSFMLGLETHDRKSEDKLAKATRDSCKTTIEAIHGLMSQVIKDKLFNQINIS
UniProt Q13616: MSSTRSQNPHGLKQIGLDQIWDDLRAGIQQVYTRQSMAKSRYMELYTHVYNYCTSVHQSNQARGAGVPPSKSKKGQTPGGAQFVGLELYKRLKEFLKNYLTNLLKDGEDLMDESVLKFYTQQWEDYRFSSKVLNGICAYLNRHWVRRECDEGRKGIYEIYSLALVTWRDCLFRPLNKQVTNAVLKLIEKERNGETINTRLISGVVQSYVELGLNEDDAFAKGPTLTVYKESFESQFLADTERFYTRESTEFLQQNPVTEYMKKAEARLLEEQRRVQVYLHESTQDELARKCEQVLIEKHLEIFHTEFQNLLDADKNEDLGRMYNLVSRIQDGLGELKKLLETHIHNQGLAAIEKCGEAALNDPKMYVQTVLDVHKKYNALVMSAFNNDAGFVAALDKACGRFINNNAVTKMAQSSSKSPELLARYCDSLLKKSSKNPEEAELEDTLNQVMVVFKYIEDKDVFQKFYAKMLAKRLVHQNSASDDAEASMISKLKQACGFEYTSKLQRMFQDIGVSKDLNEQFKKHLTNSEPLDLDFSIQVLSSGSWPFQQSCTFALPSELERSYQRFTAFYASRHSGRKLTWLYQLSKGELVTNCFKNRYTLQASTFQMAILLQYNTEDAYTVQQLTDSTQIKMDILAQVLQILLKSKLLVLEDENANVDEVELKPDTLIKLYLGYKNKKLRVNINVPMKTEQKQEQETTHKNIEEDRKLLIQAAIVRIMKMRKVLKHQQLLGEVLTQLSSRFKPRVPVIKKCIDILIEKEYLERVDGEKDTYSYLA
UniProt O35864: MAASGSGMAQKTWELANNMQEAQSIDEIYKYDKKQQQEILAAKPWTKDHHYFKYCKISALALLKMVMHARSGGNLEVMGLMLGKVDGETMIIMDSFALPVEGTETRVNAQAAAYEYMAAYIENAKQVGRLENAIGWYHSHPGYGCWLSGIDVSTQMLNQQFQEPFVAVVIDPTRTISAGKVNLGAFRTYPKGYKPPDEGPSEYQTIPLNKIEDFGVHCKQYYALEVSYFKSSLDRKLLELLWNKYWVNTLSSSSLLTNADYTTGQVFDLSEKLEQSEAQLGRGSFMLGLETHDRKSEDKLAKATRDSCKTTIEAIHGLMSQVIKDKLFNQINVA
UniProt Q9WTX6: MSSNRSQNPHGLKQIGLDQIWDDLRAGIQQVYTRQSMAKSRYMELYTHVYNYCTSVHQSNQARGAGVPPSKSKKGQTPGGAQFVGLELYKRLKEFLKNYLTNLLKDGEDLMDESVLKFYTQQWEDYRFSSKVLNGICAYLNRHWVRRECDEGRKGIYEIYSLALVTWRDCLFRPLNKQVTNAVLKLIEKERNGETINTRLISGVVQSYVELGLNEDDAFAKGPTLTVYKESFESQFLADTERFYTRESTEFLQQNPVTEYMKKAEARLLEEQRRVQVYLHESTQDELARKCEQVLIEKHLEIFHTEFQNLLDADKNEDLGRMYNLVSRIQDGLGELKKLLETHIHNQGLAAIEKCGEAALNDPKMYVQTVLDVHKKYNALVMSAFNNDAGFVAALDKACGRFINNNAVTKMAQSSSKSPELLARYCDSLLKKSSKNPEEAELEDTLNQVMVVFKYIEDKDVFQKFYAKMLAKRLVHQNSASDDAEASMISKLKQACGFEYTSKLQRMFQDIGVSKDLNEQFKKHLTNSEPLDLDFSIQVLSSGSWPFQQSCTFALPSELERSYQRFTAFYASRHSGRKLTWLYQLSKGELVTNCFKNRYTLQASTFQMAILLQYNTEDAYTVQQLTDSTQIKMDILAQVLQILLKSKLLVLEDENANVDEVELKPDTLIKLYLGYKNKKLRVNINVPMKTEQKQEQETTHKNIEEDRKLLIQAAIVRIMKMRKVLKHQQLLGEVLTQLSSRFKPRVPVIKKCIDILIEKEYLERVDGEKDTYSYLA
UniProt Q9ULZ3: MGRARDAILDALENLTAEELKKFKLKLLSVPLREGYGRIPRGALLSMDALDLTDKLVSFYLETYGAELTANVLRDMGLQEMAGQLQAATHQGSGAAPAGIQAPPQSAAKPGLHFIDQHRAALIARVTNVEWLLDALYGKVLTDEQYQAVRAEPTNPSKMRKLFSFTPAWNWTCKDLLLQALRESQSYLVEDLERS
UniProt Q96P20: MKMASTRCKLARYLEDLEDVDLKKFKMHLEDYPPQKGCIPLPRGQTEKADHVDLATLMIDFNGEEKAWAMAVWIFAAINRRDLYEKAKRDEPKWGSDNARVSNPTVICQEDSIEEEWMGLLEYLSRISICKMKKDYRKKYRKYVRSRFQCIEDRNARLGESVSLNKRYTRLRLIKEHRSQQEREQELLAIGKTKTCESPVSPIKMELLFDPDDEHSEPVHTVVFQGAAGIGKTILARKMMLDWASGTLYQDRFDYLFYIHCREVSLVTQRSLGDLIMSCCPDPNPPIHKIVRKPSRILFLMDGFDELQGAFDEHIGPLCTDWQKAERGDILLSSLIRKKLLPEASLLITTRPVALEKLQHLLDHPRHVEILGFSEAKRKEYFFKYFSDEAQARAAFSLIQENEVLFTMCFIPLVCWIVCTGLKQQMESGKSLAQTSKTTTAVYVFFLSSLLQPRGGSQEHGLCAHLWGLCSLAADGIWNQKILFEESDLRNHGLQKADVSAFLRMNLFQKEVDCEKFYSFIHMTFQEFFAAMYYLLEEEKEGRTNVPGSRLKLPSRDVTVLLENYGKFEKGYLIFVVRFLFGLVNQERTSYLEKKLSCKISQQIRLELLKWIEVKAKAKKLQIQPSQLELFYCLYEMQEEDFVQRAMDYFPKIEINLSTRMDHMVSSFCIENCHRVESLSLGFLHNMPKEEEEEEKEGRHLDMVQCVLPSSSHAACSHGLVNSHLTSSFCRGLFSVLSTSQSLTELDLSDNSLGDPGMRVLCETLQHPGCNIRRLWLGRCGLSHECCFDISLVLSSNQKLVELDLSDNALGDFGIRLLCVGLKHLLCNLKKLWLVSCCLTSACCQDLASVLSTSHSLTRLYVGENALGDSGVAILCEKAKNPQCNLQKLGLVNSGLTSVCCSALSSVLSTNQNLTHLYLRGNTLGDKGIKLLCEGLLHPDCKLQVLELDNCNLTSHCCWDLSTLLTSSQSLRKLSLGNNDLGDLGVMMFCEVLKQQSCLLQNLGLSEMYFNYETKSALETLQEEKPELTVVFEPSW
UniProt Q8R4B8: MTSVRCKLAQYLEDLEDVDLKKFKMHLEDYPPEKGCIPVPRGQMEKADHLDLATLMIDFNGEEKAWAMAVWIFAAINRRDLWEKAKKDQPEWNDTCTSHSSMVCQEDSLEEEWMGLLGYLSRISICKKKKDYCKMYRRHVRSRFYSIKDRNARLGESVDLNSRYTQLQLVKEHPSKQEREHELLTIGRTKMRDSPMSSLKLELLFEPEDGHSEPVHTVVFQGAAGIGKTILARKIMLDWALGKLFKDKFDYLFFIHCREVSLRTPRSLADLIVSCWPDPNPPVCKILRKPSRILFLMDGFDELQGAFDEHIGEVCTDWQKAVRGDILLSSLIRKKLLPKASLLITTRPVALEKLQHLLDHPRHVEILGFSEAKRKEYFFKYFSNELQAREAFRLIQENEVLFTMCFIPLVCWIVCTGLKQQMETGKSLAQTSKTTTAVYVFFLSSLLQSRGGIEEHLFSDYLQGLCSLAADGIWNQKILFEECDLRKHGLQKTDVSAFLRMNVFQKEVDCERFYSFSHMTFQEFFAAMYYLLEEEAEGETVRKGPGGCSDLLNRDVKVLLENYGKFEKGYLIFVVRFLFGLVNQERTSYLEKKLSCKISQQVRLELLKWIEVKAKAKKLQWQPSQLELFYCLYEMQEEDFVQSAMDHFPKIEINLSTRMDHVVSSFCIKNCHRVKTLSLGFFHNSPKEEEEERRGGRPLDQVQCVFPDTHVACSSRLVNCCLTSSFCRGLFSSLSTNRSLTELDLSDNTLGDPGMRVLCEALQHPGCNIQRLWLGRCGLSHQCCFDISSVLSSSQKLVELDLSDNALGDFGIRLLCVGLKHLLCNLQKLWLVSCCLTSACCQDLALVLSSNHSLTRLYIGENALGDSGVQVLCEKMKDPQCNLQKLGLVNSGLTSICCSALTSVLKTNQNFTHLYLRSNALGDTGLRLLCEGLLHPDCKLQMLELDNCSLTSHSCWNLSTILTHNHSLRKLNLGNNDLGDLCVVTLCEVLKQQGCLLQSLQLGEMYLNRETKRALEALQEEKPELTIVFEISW
UniProt P29466: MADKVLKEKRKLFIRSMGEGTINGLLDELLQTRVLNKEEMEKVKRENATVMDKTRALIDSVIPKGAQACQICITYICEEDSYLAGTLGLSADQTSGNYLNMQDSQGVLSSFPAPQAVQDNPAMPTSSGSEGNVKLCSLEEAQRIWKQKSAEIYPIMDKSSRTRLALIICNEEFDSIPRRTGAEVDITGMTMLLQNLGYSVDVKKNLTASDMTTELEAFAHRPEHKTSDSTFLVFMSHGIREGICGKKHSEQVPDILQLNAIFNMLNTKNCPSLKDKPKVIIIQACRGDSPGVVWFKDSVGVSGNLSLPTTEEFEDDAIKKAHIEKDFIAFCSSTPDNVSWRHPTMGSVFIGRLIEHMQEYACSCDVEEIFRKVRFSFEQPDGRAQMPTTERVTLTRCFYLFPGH

binding [1]: binds | binding [2]: binds
Substance: NOD-like receptor protein 3 (NLRP3) (from UniProt Q96P20 1-1036)

binding [3]: binds | binding [4]: binds
Substance: NOD-like receptor protein 3 (NLRP3), mouse (from UniProt Q8R4B8 1-1033)

binding [5]: binds
Substance: pro-caspase-1 (from UniProt P29466 1-404)
